For two molecules, binding results are on record in patent publication US20150239950A1 (SALK INSTITUTE FOR BIOLOGICAL STUDIES, published 2015).

Chains of the proteins cited; added tags and fusions are not shown. Residues count along the entry.
UniProt P27038, residues 20-135: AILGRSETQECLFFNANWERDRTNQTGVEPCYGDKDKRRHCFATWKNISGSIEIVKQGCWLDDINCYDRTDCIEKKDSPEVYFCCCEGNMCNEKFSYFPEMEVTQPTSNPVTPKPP

These are yes or no findings as the source states them, for the method shown. Some binding calls cover weakened binding; strength is not graded here.

The assay concerns the target ActRII-ECD (extracellular domain of mouse ActRII, residues 1-102) (mouse) (UniProt P27038). In words: SPR (BIAcore), receptor ECD immobilized.

B1: AB2-012 (1b2b3b4b5b6a activin/BMP-2 chimera) (ligand)
chain: MQAKHKQRKRLKSSCKRHPLYVDFSDVGWNDWIVAPPGYHAFYCHGECPFPLADHLNSTNHAIVQTLVNSVNSKIPKACCVPTELSAISMLYYDDGRNIIKKDIQNMIVEECGCS
B1: the binding result was “binds”.

B2: AB2-011 (1b2b3b4b5a6a activin/BMP-2 chimera) (ligand)
chain: MQAKHQQRKRLKSSCKRHPLYVDFSDVGWNDWIVAPPGYHAFYCHGECPFPLADHLNSTNHAIVQTLVNSVNSKIPKACCVPTKLRPSMLYYDDGQNIIKKDIQNMIVEECGCS
B2: the binding result is on record as “binds”.
